Over roughly 33,000 sequences, “E-score (-0.5 to 0.5)” has its median near -8e-05; the highest 2% begin near 0.23. This is one part of the list.
Each sequence was assayed against T1, Nrg2 (UniProt P38082) (assay: PBM E-score (8-mer binding enrichment) (E-score (-0.5 to 0.5)); higher = stronger / more preferred TF binding). Conditions: protein concentration: 100 nM; construct: GST-full length.
T1 sequence: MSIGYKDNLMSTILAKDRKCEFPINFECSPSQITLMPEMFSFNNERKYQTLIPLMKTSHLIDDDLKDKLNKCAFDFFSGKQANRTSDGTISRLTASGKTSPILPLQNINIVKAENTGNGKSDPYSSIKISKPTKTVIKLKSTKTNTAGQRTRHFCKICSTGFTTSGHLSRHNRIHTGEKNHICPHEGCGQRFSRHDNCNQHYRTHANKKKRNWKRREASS
Outline: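 E-scores (a modified Wilcoxon-Mann-Whitney statistic) were assigned by the Universal PBM Analysis Suite to every ungapped eight-base word pooled with its reverse complement. The input came from universal all-10-mer Agilent arrays made double-stranded by primer extension and probed with GST-tagged yeast transcription factors at about 100-200 nM. Fluorescent anti-GST detected bound protein, and masliner normalised the scans.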
CACCACGC was tested, and the “PBM E-score” value was -0.291. For TCTAGTCA, the “PBM E-score” value was -0.0689. CTGGCATA was tested, and the “PBM E-score” value was 0.0433. GCTCTTAC was tested, and the “PBM E-score” value was 0.0804. CCGCGGTA was tested, and the “PBM E-score” value was 0.119. In the case of CAACGAGA, the “PBM E-score” value is reported as 0.129. In the case of TGCTCAAA, the “PBM E-score” value is reported as -0.159. For GCTCGCCC, the “PBM E-score” value was -0.0126. AAATCTGC was tested, and the “PBM E-score” value was 0.0596. For ATTGACAC, the “PBM E-score” value was -0.0817. For ACTGATAC, the “PBM E-score” value was -0.114. With CGGAAGGA the “PBM E-score” value was -0.171. For ATGGTTCA, the “PBM E-score” value was 0.0644. In the case of GATAACTA, the “PBM E-score” value is reported as 0.122. For CTAGCATA, the “PBM E-score” value was -0.171. For AAGGAGTC, the “PBM E-score” value was -0.139. In the case of CTGAGCGC, the “PBM E-score” value is reported as -0.031. With AACCCGTA the “PBM E-score” value was -0.0217. AAATGGTA was tested, and the “PBM E-score” value was 0.22. For CTTGATCC, the “PBM E-score” value was -0.0337. With AAAATGCC the “PBM E-score” value was -0.0751. CCTTAGAA was tested, and the “PBM E-score” value was -0.0241. GTTCACAA was tested, and the “PBM E-score” value was 0.0507. GCTGAGAC was tested, and the “PBM E-score” value was -0.00984. For GATGCAAA, the “PBM E-score” value was 0.0177. For AGGCCTAT, the “PBM E-score” value was -0.224. With GCTAATGA the “PBM E-score” value was 0.00625. CGAGCTAA was tested, and the “PBM E-score” value was 0.0506. With AACATCCT the “PBM E-score” value was 0.0505. For GCTGGAGA, the “PBM E-score” value was -0.167. GGCGTGAC was tested, and the “PBM E-score” value was -0.0702. For GATGCCGA, the “PBM E-score” value was -0.0132. In the case of GTATAACA, the “PBM E-score” value is reported as 0.0414. For ACACTTGC, the “PBM E-score” value was 0.0656. With GCCGGGTA the “PBM E-score” value was -0.0201. AGACGGCT was tested, and the “PBM E-score” value was -0.278. With CGTCCGGC the “PBM E-score” value was 0.0439. For CCGGTTCA, the “PBM E-score” value was -0.19. In the case of AAACCGGT, the “PBM E-score” value is reported as -0.103. For GAGGTCAA, the “PBM E-score” value was 0.00529. GCGGTCCA was tested, and the “PBM E-score” value was -0.159. AGCGTAGG was tested, and the “PBM E-score” value was 0.0254. With ATCCAACC the “PBM E-score” value was 0.0142. With GAAGAGGC the “PBM E-score” value was -0.0753. In the case of CATCTAGA, the “PBM E-score” value is reported as -0.00757. With ACTTTTAG the “PBM E-score” value was 0.0105. TGTTAACA was tested, and the “PBM E-score” value was 0.104. With GATTCGGA the “PBM E-score” value was 0.138. For ACGTGTCG, the “PBM E-score” value was -0.183. In the case of TCCCTCAA, the “PBM E-score” value is reported as -0.0165. With GCTAGGAC the “PBM E-score” value was -0.211. CCTACCCA was tested, and the “PBM E-score” value was -0.12. With GGATATAA the “PBM E-score” value was 0.129. In the case of CATTGGCC, the “PBM E-score” value is reported as -0.0708. ATGGTCGC was tested, and the “PBM E-score” value was 0.0621. With ATACTCAG the “PBM E-score” value was 0.227. AGAGACCT was tested, and the “PBM E-score” value was -0.0434. For CCATGATA, the “PBM E-score” value was -0.00087. In the case of GTGCACCA, the “PBM E-score” value is reported as -0.0107. For ACATAAGC, the “PBM E-score” value was -0.00031. GACTCTCA was tested, and the “PBM E-score” value was -0.0326. ACACACAT was tested, and the “PBM E-score” value was 0.0979. In the case of GCCTCGGA, the “PBM E-score” value is reported as -0.169. In the case of CAGTTGAG, the “PBM E-score” value is reported as 0.0333. With ACACAGCC the “PBM E-score” value was -0.0944. With CGACACAA the “PBM E-score” value was 0.0164. With GCTGCGAA the “PBM E-score” value was 0.0318. With AGATCACT the “PBM E-score” value was 0.218. With GGTTCTTA the “PBM E-score” value was 0.139. In the case of TACGTCTA, the “PBM E-score” value is reported as -0.033. For CAGATAGC, the “PBM E-score” value was -0.124. GGCCGGGA was tested, and the “PBM E-score” value was 0.00867. For AAGTACTT, the “PBM E-score” value was -0.0267. In the case of AATCACAT, the “PBM E-score” value is reported as 0.0705. In the case of AGGTCGTC, the “PBM E-score” value is reported as -0.057. For AGATCGCG, the “PBM E-score” value was 0.137. GCAGAAAC was tested, and the “PBM E-score” value was 0.123. For AAGTTACG, the “PBM E-score” value was 0.0943. For ACTAAAAG, the “PBM E-score” value was 0.171. With GACACGCA the “PBM E-score” value was -0.0337. For GCTAGATA, the “PBM E-score” value was 0.0878. For AAGCTGAG, the “PBM E-score” value was -0.00374. With CCAGACTC the “PBM E-score” value was -0.138. In the case of GTATGGTA, the “PBM E-score” value is reported as 0.158. TATAGTCA was tested, and the “PBM E-score” value was 0.0805. For CTAAGAGA, the “PBM E-score” value was -0.0214. CCCCTAGG was tested, and the “PBM E-score” value was -0.0754. For CGAGAACC, the “PBM E-score” value was -0.00818. For GACAGTAC, the “PBM E-score” value was 0.0442. GAGAGCAC was tested, and the “PBM E-score” value was -0.113. CTTAGTTC was tested, and the “PBM E-score” value was 0.128. ACCGTTCT was tested, and the “PBM E-score” value was -0.0558. In the case of GAATCTAC, the “PBM E-score” value is reported as 0.116. GAGTGCAA was tested, and the “PBM E-score” value was 0.154. AAGACGGC was tested, and the “PBM E-score” value was -0.0277. TCAAAGGA was tested, and the “PBM E-score” value was -0.0769. For ATGTTATG, the “PBM E-score” value was 0.159. For ACCACAGT, the “PBM E-score” value was 0.0893. CGCAATGC was tested, and the “PBM E-score” value was -0.0461. In the case of CACCACTA, the “PBM E-score” value is reported as 0.0192. GTAGATAC was tested, and the “PBM E-score” value was 0.0474. For CAGGACCC, the “PBM E-score” value was 0.215. With CGCAGTGA the “PBM E-score” value was -0.0744. In the case of ATTGTAAC, the “PBM E-score” value is reported as 0.122. With ACATGACG the “PBM E-score” value was 0.00128. For CCACGAAC, the “PBM E-score” value was 0.12. In the case of GCAGGTCC, the “PBM E-score” value is reported as 0.00594. CCAGGACG was tested, and the “PBM E-score” value was -0.259. CAAAATTA was tested, and the “PBM E-score” value was 0.103. For CTGCTTCA, the “PBM E-score” value was -0.0765. For CCCCAAGG, the “PBM E-score” value was -0.109. With CGTCATAA the “PBM E-score” value was -0.0304. In the case of AAACATGT, the “PBM E-score” value is reported as 0.0882. For CCAACTGA, the “PBM E-score” value was -0.106. In the case of GTTGCACA, the “PBM E-score” value is reported as -0.0572. AAATCCAC was tested, and the “PBM E-score” value was 0.082. For AGAGCTTG, the “PBM E-score” value was 0.0228. In the case of AGCCCGTA, the “PBM E-score” value is reported as -0.241. For ACGAAGAA, the “PBM E-score” value was 0.149. With ATTCACAG the “PBM E-score” value was 0.0998. For ATGAGAGG, the “PBM E-score” value was -0.0391. For GCCACTCC, the “PBM E-score” value was -0.111. AACGTTTA was tested, and the “PBM E-score” value was 0.0881. In the case of GTACGATA, the “PBM E-score” value is reported as -0.0465. ACGCCGGA was tested, and the “PBM E-score” value was -0.264. With ACGGAATA the “PBM E-score” value was 0.052. AAACACCC was tested, and the “PBM E-score” value was 0.0477. CCCGTCGC was tested, and the “PBM E-score” value was 0.0288. With ACTGCTAG the “PBM E-score” value was -0.128. AGGGGGGG was tested, and the “PBM E-score” value was -0.42. AGACTTTG was tested, and the “PBM E-score” value was -0.151. CCAAGGAA was tested, and the “PBM E-score” value was -0.188. For AATTTTGA, the “PBM E-score” value was 0.206. With GATCAGTA the “PBM E-score” value was 0.0743. In the case of AAAGTGTC, the “PBM E-score” value is reported as 0.0487. For ACTATGGA, the “PBM E-score” value was -0.182. For GATAAAAA, the “PBM E-score” value was -0.00426. For CCCGTCGA, the “PBM E-score” value was -0.0776. In the case of AGGCAAGC, the “PBM E-score” value is reported as -0.0964. In the case of ATTTTTTC, the “PBM E-score” value is reported as 0.0129. With ATATACTG the “PBM E-score” value was 0.099. With CTGGCTGC the “PBM E-score” value was -0.172. For CGTCCCTA, the “PBM E-score” value was -0.0138. For CATGATAC, the “PBM E-score” value was 0.207. CGAGATTC was tested, and the “PBM E-score” value was 0.143. With CCTGGTCG the “PBM E-score” value was -0.13. With CCAAGTAG the “PBM E-score” value was -0.0138. ATTTCCTG was tested, and the “PBM E-score” value was 0.173. GAGACCCC was tested, and the “PBM E-score” value was 0.101. GGACAGCA was tested, and the “PBM E-score” value was -0.0537. In the case of CTTTTGCC, the “PBM E-score” value is reported as 0.1. In the case of CGAATGAA, the “PBM E-score” value is reported as 0.0718. For CGGTCCTC, the “PBM E-score” value was -0.185. For CAGGTGAC, the “PBM E-score” value was -0.0938. In the case of GGTCATGA, the “PBM E-score” value is reported as 0.15. With CGAAACTA the “PBM E-score” value was 0.0964. CCTCGCGC was tested, and the “PBM E-score” value was -0.0472. For AGTGCAAT, the “PBM E-score” value was 0.0654. With ATCTATGA the “PBM E-score” value was 0.0668. AGGCCCCG was tested, and the “PBM E-score” value was -0.277. In the case of ATCTAGAG, the “PBM E-score” value is reported as -0.0164. In the case of CGATTTGC, the “PBM E-score” value is reported as 0.0454. With CCTAGACA the “PBM E-score” value was -0.18. CTCATAAA was tested, and the “PBM E-score” value was -0.0542. ATACCTGA was tested, and the “PBM E-score” value was -0.0215. In the case of AGAGCTCA, the “PBM E-score” value is reported as 0.0121. In the case of ACCTCATA, the “PBM E-score” value is reported as 0.00476. For ATGTGTAG, the “PBM E-score” value was 0.0278. With GCGATCGC the “PBM E-score” value was 0.203. In the case of GGAGGTAA, the “PBM E-score” value is reported as -0.0401. CTCGTGTA was tested, and the “PBM E-score” value was 0.0359. With GGCTTGAC the “PBM E-score” value was -0.0364.
